The effect of the compound repeats well; differences between the knockouts mostly do not.
Test system: BT-20
Test: relative cell number vs DMSO control (72 h) (% of DMSO); higher = less growth inhibition (more cells)
Description: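 QMAP-Seq: a pool of 5 breast cancer cell lines (ZR-75-1, SKBR3, HCC-38, MDA-MB-231, BT-20), each carrying 12 doxycycline-inducible Cas9 sgRNA perturbations (11 knockouts plus non-targeting sgNT), was treated with compounds for 72 h at four 10-fold doses (10 nM-10 uM or 1 nM-1 uM range). Barcodes were amplified and sequenced, and cell number was interpolated from 293T spike-in standard curves. The result is expressed as % of the median of DMSO wells. Two biological replicates.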

COc1cccc2cc(-c3nc([C@H]4CC[C@H](C(=O)O)CC4)n4ncnc(N)c34)[nH]c12 [OSI027]
Conditions	relative cell number
sgRNA knockout: sgATF3, 10 nM	102
sgRNA knockout: sgATF3, 100 nM	107
sgRNA knockout: sgATF3, 1000 nM	76.6
sgRNA knockout: sgATF3, 10000 nM	45.77
sgRNA knockout: sgATF4, 10 nM	94.1
sgRNA knockout: sgATF4, 100 nM	130
sgRNA knockout: sgATF4, 1000 nM	78.3
sgRNA knockout: sgATF4, 10000 nM	55.7
sgRNA knockout: sgATF6, 10 nM	92.6
sgRNA knockout: sgATF6, 100 nM	117
sgRNA knockout: sgATF6, 1000 nM	77.1
sgRNA knockout: sgATF6, 10000 nM	52.27
sgRNA knockout: sgATG7, 10 nM	98.5
sgRNA knockout: sgATG7, 100 nM	109
sgRNA knockout: sgATG7, 1000 nM	82
sgRNA knockout: sgATG7, 10000 nM	56.2
sgRNA knockout: sgERN1, 10 nM	93.1
sgRNA knockout: sgERN1, 100 nM	103
sgRNA knockout: sgERN1, 1000 nM	86.7
sgRNA knockout: sgERN1, 10000 nM	43.5
sgRNA knockout: sgHSF1, 10 nM	98.1
sgRNA knockout: sgHSF1, 100 nM	108
sgRNA knockout: sgHSF1, 1000 nM	76.3
sgRNA knockout: sgHSF1, 10000 nM	49.4
sgRNA knockout: sgHSF2, 10 nM	96.3
sgRNA knockout: sgHSF2, 100 nM	116
sgRNA knockout: sgHSF2, 1000 nM	86.4
sgRNA knockout: sgHSF2, 10000 nM	50.1
sgRNA knockout: sgKEAP1, 10 nM	101
sgRNA knockout: sgKEAP1, 100 nM	108
sgRNA knockout: sgKEAP1, 1000 nM	85.2
sgRNA knockout: sgKEAP1, 10000 nM	53
sgRNA knockout: sgNFE2L2, 10 nM	101
sgRNA knockout: sgNFE2L2, 100 nM	123
sgRNA knockout: sgNFE2L2, 1000 nM	94.2
sgRNA knockout: sgNFE2L2, 10000 nM	55.9
sgRNA knockout: sgSLC35F2, 10 nM	90.85
sgRNA knockout: sgSLC35F2, 100 nM	104
sgRNA knockout: sgSLC35F2, 1000 nM	87.3
sgRNA knockout: sgSLC35F2, 10000 nM	46.4
sgRNA knockout: sgXBP1, 10 nM	104
sgRNA knockout: sgXBP1, 100 nM	114
sgRNA knockout: sgXBP1, 1000 nM	76.4
sgRNA knockout: sgXBP1, 10000 nM	47

Clc1ccc(C2(c3ccc(-c4cn[nH]c4)cc3)CCNCC2)cc1 [AT7867]
Conditions	relative cell number
sgRNA knockout: sgATF3, 10 nM	91.5
sgRNA knockout: sgATF3, 100 nM	111
sgRNA knockout: sgATF3, 1000 nM	77.6
sgRNA knockout: sgATF3, 10000 nM	17.111
sgRNA knockout: sgATF4, 10 nM	72.7
sgRNA knockout: sgATF4, 100 nM	129
sgRNA knockout: sgATF4, 1000 nM	77.3
sgRNA knockout: sgATF4, 10000 nM	26.1
sgRNA knockout: sgATF6, 10 nM	92.6
sgRNA knockout: sgATF6, 100 nM	95
sgRNA knockout: sgATF6, 1000 nM	72.6
sgRNA knockout: sgATF6, 10000 nM	21.1
sgRNA knockout: sgATG7, 10 nM	98.9
sgRNA knockout: sgATG7, 100 nM	109
sgRNA knockout: sgATG7, 1000 nM	62.5
sgRNA knockout: sgATG7, 10000 nM	26.3
sgRNA knockout: sgERN1, 10 nM	99
sgRNA knockout: sgERN1, 100 nM	113
sgRNA knockout: sgERN1, 1000 nM	85.5
sgRNA knockout: sgERN1, 10000 nM	23.4
sgRNA knockout: sgHSF1, 10 nM	92.6
sgRNA knockout: sgHSF1, 100 nM	105
sgRNA knockout: sgHSF1, 1000 nM	84.3
sgRNA knockout: sgHSF1, 10000 nM	22.5
sgRNA knockout: sgHSF2, 10 nM	89.62
sgRNA knockout: sgHSF2, 100 nM	97.8
sgRNA knockout: sgHSF2, 1000 nM	84.5
sgRNA knockout: sgHSF2, 10000 nM	27
sgRNA knockout: sgKEAP1, 10 nM	82.6
sgRNA knockout: sgKEAP1, 100 nM	99.7
sgRNA knockout: sgKEAP1, 1000 nM	93.9
sgRNA knockout: sgKEAP1, 10000 nM	24.5
sgRNA knockout: sgNFE2L2, 10 nM	97.1
sgRNA knockout: sgNFE2L2, 100 nM	123
sgRNA knockout: sgNFE2L2, 1000 nM	72.6
sgRNA knockout: sgNFE2L2, 10000 nM	25.13
sgRNA knockout: sgSLC35F2, 10 nM	108
sgRNA knockout: sgSLC35F2, 100 nM	99
sgRNA knockout: sgSLC35F2, 1000 nM	82.8
sgRNA knockout: sgSLC35F2, 10000 nM	27.9
sgRNA knockout: sgXBP1, 10 nM	98.6
sgRNA knockout: sgXBP1, 100 nM	125
sgRNA knockout: sgXBP1, 1000 nM	90.4
sgRNA knockout: sgXBP1, 10000 nM	26.3

C[C@@H](Nc1cc(F)cc(F)c1)c1cc(C(=O)N(C)C)cc2c(=O)cc(N3CCOCC3)oc12 [AZD8186]
Conditions	relative cell number
sgRNA knockout: sgATF3, 10 nM	111
sgRNA knockout: sgATF3, 100 nM	112
sgRNA knockout: sgATF3, 1000 nM	89.7
sgRNA knockout: sgATF3, 10000 nM	87.8
sgRNA knockout: sgATF4, 10 nM	108
sgRNA knockout: sgATF4, 100 nM	128
sgRNA knockout: sgATF4, 1000 nM	112
sgRNA knockout: sgATF4, 10000 nM	91.58
sgRNA knockout: sgATF6, 10 nM	93.7
sgRNA knockout: sgATF6, 100 nM	108
sgRNA knockout: sgATF6, 1000 nM	88.9
sgRNA knockout: sgATF6, 10000 nM	87.6
sgRNA knockout: sgATG7, 10 nM	93.7
sgRNA knockout: sgATG7, 100 nM	135
sgRNA knockout: sgATG7, 1000 nM	93.6
sgRNA knockout: sgATG7, 10000 nM	92
sgRNA knockout: sgERN1, 10 nM	97.9
sgRNA knockout: sgERN1, 100 nM	125
sgRNA knockout: sgERN1, 1000 nM	86.187
sgRNA knockout: sgERN1, 10000 nM	84
sgRNA knockout: sgHSF1, 10 nM	94.5
sgRNA knockout: sgHSF1, 100 nM	110.5
sgRNA knockout: sgHSF1, 1000 nM	82.7
sgRNA knockout: sgHSF1, 10000 nM	98.5
sgRNA knockout: sgHSF2, 10 nM	106
sgRNA knockout: sgHSF2, 100 nM	102
sgRNA knockout: sgHSF2, 1000 nM	100
sgRNA knockout: sgHSF2, 10000 nM	76.8
sgRNA knockout: sgKEAP1, 10 nM	92.6
sgRNA knockout: sgKEAP1, 100 nM	108
sgRNA knockout: sgKEAP1, 1000 nM	88.1
sgRNA knockout: sgKEAP1, 10000 nM	91.8
sgRNA knockout: sgNFE2L2, 10 nM	119
sgRNA knockout: sgNFE2L2, 100 nM	129
sgRNA knockout: sgNFE2L2, 1000 nM	100
sgRNA knockout: sgNFE2L2, 10000 nM	81.2
sgRNA knockout: sgSLC35F2, 10 nM	101
sgRNA knockout: sgSLC35F2, 100 nM	125
sgRNA knockout: sgSLC35F2, 1000 nM	99.3
sgRNA knockout: sgSLC35F2, 10000 nM	95.2
sgRNA knockout: sgXBP1, 10 nM	104
sgRNA knockout: sgXBP1, 100 nM	117
sgRNA knockout: sgXBP1, 1000 nM	100
sgRNA knockout: sgXBP1, 10000 nM	92.8

Cc1ccccc1-n1c(Cn2cnc3c(N)ncnc32)nc2cccc(C)c2c1=O
Conditions	relative cell number
sgRNA knockout: sgATF3, 10 nM	107
sgRNA knockout: sgATF3, 100 nM	113
sgRNA knockout: sgATF3, 1000 nM	95.2
sgRNA knockout: sgATF3, 10000 nM	116
sgRNA knockout: sgATF4, 10 nM	105
sgRNA knockout: sgATF4, 100 nM	131
sgRNA knockout: sgATF4, 1000 nM	101
sgRNA knockout: sgATF4, 10000 nM	115
sgRNA knockout: sgATF6, 10 nM	106
sgRNA knockout: sgATF6, 100 nM	119
sgRNA knockout: sgATF6, 1000 nM	73.7
sgRNA knockout: sgATF6, 10000 nM	99.1
sgRNA knockout: sgATG7, 10 nM	102
sgRNA knockout: sgATG7, 100 nM	136
sgRNA knockout: sgATG7, 1000 nM	98.3
sgRNA knockout: sgATG7, 10000 nM	115
sgRNA knockout: sgERN1, 10 nM	107
sgRNA knockout: sgERN1, 100 nM	109
sgRNA knockout: sgERN1, 1000 nM	85.3
sgRNA knockout: sgERN1, 10000 nM	94
sgRNA knockout: sgHSF1, 10 nM	90.2
sgRNA knockout: sgHSF1, 100 nM	105
sgRNA knockout: sgHSF1, 1000 nM	73.6
sgRNA knockout: sgHSF1, 10000 nM	110
sgRNA knockout: sgHSF2, 10 nM	103
sgRNA knockout: sgHSF2, 100 nM	128
sgRNA knockout: sgHSF2, 1000 nM	88
sgRNA knockout: sgHSF2, 10000 nM	114.1
sgRNA knockout: sgKEAP1, 10 nM	91.4
sgRNA knockout: sgKEAP1, 100 nM	108
sgRNA knockout: sgKEAP1, 1000 nM	88.7
sgRNA knockout: sgKEAP1, 10000 nM	99.1
sgRNA knockout: sgNFE2L2, 10 nM	115
sgRNA knockout: sgNFE2L2, 100 nM	160
sgRNA knockout: sgNFE2L2, 1000 nM	112
sgRNA knockout: sgNFE2L2, 10000 nM	115
sgRNA knockout: sgSLC35F2, 10 nM	109
sgRNA knockout: sgSLC35F2, 100 nM	124
sgRNA knockout: sgSLC35F2, 1000 nM	89.1
sgRNA knockout: sgSLC35F2, 10000 nM	132
sgRNA knockout: sgXBP1, 10 nM	97.9
sgRNA knockout: sgXBP1, 100 nM	123
sgRNA knockout: sgXBP1, 1000 nM	101
sgRNA knockout: sgXBP1, 10000 nM	111
